Data: publication PMC7351999
Results are given in words; binding and its absence hold for the method and conditions named.

Protein sequences, listed by entry. Tags and fused reporters are not part of them. Lines headed by an entry give the natural chain unless they say otherwise; changes in a name come on top. Chains listed by the source or under a name are the forms on record and can include a tag or linker. Residues count along the entry.
human RHOG (amino acids 1–179) (P84095, residues 1-179): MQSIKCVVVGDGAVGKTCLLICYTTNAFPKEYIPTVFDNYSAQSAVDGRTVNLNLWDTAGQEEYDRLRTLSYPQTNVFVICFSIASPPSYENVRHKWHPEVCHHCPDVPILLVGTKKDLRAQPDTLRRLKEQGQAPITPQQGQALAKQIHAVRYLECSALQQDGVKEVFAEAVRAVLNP
RHOG R66A mutant (P84095, form named): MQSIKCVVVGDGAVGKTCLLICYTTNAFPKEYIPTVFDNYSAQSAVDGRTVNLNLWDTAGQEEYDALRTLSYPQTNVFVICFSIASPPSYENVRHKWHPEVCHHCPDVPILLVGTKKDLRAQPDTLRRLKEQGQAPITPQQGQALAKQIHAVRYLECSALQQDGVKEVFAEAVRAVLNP

Key:
[1] = molecular target: human RHOG (amino acids 1–179) (human) (UniProt P84095); experiment: ITC; ELMO2^RBD injected into the cell containing GDP-loaded RHOG; 20 mM Tris-HCl (pH 7.5), 100 mM NaCl, 1 mM DTT; 25 °C; both purified
RHOG R66A mutant (human) = RHOG R66A mutant (human) (UniProt P84095); experiment: ITC; ELMO2^RBD injected into the cell containing GMPPNP-loaded (activated) RHOG; 20 mM Tris-HCl (pH 7.5), 100 mM NaCl, 1 mM DTT; 25 °C; both purified
[2] = molecular target: human RHOG (amino acids 1–179) (human) (UniProt P84095); experiment: as above

Binder	binding [1]	binding (RHOG R66A mutant (human))	binding [2]
N-terminal RBD domain of murine ELMO2 (amino acids 1–80) (domain or fragment, UniProt Q8BHL5 1-80) MPPPSDIVKVAIEWPGANAQLLEIDQKRPLASIIKEVCDGWSLPNPEYYTLRYADGPQLYVTEQTRNDIKNGTILQLAVS	no binding (condition: RHOG loaded with GDP)	no binding	
ELMO2^RBD K9A mutant (domain or fragment, UniProt Q8BHL5 1-80) MPPPSDIVAVAIEWPGANAQLLEIDQKRPLASIIKEVCDGWSLPNPEYYTLRYADGPQLYVTEQTRNDIKNGTILQLAVS			no binding
